According to article doi:10.1101/2022.11.22.517464:
These are yes or no findings as the source states them, for the method shown. Some entries that bind do so weakly or less than the wild type.

T1: full-length Swi6 (S. pombe) (UniProt P40381)
T1 sequence: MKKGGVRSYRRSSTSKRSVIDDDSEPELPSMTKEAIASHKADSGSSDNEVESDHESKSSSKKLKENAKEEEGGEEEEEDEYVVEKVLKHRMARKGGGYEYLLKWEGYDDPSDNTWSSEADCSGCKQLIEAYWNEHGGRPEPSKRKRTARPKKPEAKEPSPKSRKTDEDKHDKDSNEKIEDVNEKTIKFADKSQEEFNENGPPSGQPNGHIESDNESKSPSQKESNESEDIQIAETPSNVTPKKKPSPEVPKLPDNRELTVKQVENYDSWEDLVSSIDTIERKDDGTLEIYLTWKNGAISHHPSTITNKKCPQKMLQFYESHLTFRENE

T2: Swi2 (1–722 aa), purified in complex with Swi5 (S. pombe) (UniProt Q10668)
T2 sequence: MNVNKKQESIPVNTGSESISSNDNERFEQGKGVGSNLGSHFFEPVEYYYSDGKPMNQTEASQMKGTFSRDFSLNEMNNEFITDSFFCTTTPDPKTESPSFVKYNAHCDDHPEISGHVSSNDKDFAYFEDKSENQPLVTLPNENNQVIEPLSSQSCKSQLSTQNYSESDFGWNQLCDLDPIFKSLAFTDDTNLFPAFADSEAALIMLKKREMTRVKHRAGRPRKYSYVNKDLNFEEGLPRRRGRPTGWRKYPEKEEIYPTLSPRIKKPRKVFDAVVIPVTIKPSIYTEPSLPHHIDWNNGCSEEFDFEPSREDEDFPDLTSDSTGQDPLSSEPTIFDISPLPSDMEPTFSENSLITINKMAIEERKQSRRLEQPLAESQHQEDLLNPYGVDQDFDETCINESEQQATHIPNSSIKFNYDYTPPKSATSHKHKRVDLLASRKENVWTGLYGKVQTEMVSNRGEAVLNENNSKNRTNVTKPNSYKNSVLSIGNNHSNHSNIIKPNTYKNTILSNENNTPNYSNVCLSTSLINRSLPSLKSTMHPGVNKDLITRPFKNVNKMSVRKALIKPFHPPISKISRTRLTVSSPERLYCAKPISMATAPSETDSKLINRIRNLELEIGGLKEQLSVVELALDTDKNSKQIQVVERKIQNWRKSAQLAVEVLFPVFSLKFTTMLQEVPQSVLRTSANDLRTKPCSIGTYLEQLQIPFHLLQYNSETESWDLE

T3: Swi2C (392–722 aa), purified in complex with Swi5 (S. pombe) (UniProt Q10668)
T3 sequence: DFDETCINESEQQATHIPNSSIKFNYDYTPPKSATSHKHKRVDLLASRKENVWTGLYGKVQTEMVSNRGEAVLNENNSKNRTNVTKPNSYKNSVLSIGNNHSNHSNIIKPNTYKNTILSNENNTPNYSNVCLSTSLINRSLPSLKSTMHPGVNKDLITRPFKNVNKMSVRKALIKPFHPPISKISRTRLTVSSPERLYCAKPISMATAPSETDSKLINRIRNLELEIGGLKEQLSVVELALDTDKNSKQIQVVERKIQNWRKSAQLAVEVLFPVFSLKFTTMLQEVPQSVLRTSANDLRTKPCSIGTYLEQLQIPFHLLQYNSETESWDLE

T4: Swi2CS (607–722 aa), purified in complex with Swi5 (S. pombe) (UniProt Q10668)
T4 sequence: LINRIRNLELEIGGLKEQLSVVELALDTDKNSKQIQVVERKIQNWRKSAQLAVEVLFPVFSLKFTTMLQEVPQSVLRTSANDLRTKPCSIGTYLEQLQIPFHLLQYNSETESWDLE

T5: Swi2S (205–722 aa), purified in complex with Swi5 (S. pombe) (UniProt Q10668)
T5 sequence: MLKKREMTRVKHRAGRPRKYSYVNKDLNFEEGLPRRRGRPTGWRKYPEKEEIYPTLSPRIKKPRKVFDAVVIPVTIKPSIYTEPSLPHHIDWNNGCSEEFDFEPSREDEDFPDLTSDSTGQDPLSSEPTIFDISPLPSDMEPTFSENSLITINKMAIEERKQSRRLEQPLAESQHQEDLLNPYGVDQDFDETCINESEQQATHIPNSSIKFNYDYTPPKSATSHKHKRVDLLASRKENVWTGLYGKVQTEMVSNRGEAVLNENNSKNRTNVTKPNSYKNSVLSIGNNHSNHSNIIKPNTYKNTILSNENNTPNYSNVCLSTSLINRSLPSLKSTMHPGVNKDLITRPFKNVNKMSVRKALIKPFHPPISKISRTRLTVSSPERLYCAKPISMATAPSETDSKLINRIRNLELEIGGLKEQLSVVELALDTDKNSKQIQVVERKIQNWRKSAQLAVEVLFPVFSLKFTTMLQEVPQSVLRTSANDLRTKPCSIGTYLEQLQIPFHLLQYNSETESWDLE


Assays:
[1] = molecular target: T1, full-length Swi6 (S. pombe); assay: two-hybrid
[2] = molecular target: T2, Swi2 (1–722 aa), purified in complex with Swi5 (S. pombe); assay: co-purification after co-expression
[3] = molecular target: T3, Swi2C (392–722 aa), purified in complex with Swi5 (S. pombe); assay: co-purification after co-expression
[4] = molecular target: T4, Swi2CS (607–722 aa), purified in complex with Swi5 (S. pombe); assay: co-purification after co-expression
[5] = molecular target: T5, Swi2S (205–722 aa), purified in complex with Swi5 (S. pombe); assay: co-purification after co-expression

Binder	binding [1]	also measured
Swi5 (protein, UniProt Q9UUB7 1-85) MEKSQLESRVHLLEQQKEQLESSLQDALAKLKNRDAKQTVQKHIDLLHTYNEIRDIALGMIGKVAEHEKCTSVELFDRFGVNGSE		binding [2]: binds; binding [3]: binds; binding [4]: binds; binding [5]: binds
Swi2 (1–280) truncation mutant (domain or fragment, UniProt Q10668 1-280) MNVNKKQESIPVNTGSESISSNDNERFEQGKGVGSNLGSHFFEPVEYYYSDGKPMNQTEASQMKGTFSRDFSLNEMNNEFITDSFFCTTTPDPKTESPSFVKYNAHCDDHPEISGHVSSNDKDFAYFEDKSENQPLVTLPNENNQVIEPLSSQSCKSQLSTQNYSESDFGWNQLCDLDPIFKSLAFTDDTNLFPAFADSEAALIMLKKREMTRVKHRAGRPRKYSYVNKDLNFEEGLPRRRGRPTGWRKYPEKEEIYPTLSPRIKKPRKVFDAVVIPVTI	binds	
Swi2 (1–260) truncation mutant (domain or fragment, UniProt Q10668 1-260) MNVNKKQESIPVNTGSESISSNDNERFEQGKGVGSNLGSHFFEPVEYYYSDGKPMNQTEASQMKGTFSRDFSLNEMNNEFITDSFFCTTTPDPKTESPSFVKYNAHCDDHPEISGHVSSNDKDFAYFEDKSENQPLVTLPNENNQVIEPLSSQSCKSQLSTQNYSESDFGWNQLCDLDPIFKSLAFTDDTNLFPAFADSEAALIMLKKREMTRVKHRAGRPRKYSYVNKDLNFEEGLPRRRGRPTGWRKYPEKEEIYPTL	no binding	

Continued, in another order:

binding [1]	Binder	also measured
binds	Swi2 full-length (pGADT7-Swi2 full-length) (protein, UniProt Q10668 1-722) MNVNKKQESIPVNTGSESISSNDNERFEQGKGVGSNLGSHFFEPVEYYYSDGKPMNQTEASQMKGTFSRDFSLNEMNNEFITDSFFCTTTPDPKTESPSFVKYNAHCDDHPEISGHVSSNDKDFAYFEDKSENQPLVTLPNENNQVIEPLSSQSCKSQLSTQNYSESDFGWNQLCDLDPIFKSLAFTDDTNLFPAFADSEAALIMLKKREMTRVKHRAGRPRKYSYVNKDLNFEEGLPRRRGRPTGWRKYPEKEEIYPTLSPRIKKPRKVFDAVVIPVTIKPSIYTEPSLPHHIDWNNGCSEEFDFEPSREDEDFPDLTSDSTGQDPLSSEPTIFDISPLPSDMEPTFSENSLITINKMAIEERKQSRRLEQPLAESQHQEDLLNPYGVDQDFDETCINESEQQATHIPNSSIKFNYDYTPPKSATSHKHKRVDLLASRKENVWTGLYGKVQTEMVSNRGEAVLNENNSKNRTNVTKPNSYKNSVLSIGNNHSNHSNIIKPNTYKNTILSNENNTPNYSNVCLSTSLINRSLPSLKSTMHPGVNKDLITRPFKNVNKMSVRKALIKPFHPPISKISRTRLTVSSPERLYCAKPISMATAPSETDSKLINRIRNLELEIGGLKEQLSVVELALDTDKNSKQIQVVERKIQNWRKSAQLAVEVLFPVFSLKFTTMLQEVPQSVLRTSANDLRTKPCSIGTYLEQLQIPFHLLQYNSETESWDLE	
no binding	Swi2-V274A (protein, UniProt Q10668 1-722) MNVNKKQESIPVNTGSESISSNDNERFEQGKGVGSNLGSHFFEPVEYYYSDGKPMNQTEASQMKGTFSRDFSLNEMNNEFITDSFFCTTTPDPKTESPSFVKYNAHCDDHPEISGHVSSNDKDFAYFEDKSENQPLVTLPNENNQVIEPLSSQSCKSQLSTQNYSESDFGWNQLCDLDPIFKSLAFTDDTNLFPAFADSEAALIMLKKREMTRVKHRAGRPRKYSYVNKDLNFEEGLPRRRGRPTGWRKYPEKEEIYPTLSPRIKKPRKVFDAAVIPVTIKPSIYTEPSLPHHIDWNNGCSEEFDFEPSREDEDFPDLTSDSTGQDPLSSEPTIFDISPLPSDMEPTFSENSLITINKMAIEERKQSRRLEQPLAESQHQEDLLNPYGVDQDFDETCINESEQQATHIPNSSIKFNYDYTPPKSATSHKHKRVDLLASRKENVWTGLYGKVQTEMVSNRGEAVLNENNSKNRTNVTKPNSYKNSVLSIGNNHSNHSNIIKPNTYKNTILSNENNTPNYSNVCLSTSLINRSLPSLKSTMHPGVNKDLITRPFKNVNKMSVRKALIKPFHPPISKISRTRLTVSSPERLYCAKPISMATAPSETDSKLINRIRNLELEIGGLKEQLSVVELALDTDKNSKQIQVVERKIQNWRKSAQLAVEVLFPVFSLKFTTMLQEVPQSVLRTSANDLRTKPCSIGTYLEQLQIPFHLLQYNSETESWDLE	
